No constants are given. Whether binding was seen depends on the method and setting. In cells and extracts the contact can be indirect. Here binding means that the protein was enriched with, or labelled near, the bait; the list need not be complete. For part of these data: A no says only that the protein was not detected with the bait.
T1: Formate dehydrogenase, [4Fe-4S] cluster-binding protein, FDHγ3 (Thermococcus kodakarensis) (UniProt Q5JHV9)
T1 sequence: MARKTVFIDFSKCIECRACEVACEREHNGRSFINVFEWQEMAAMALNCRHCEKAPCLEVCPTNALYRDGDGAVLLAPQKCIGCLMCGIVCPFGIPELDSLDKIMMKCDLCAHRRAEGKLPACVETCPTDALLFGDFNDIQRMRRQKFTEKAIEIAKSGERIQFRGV

T2: Indolepyruvate-Fd oxidoreductase, α subunit (Thermococcus kodakarensis) (UniProt O07835)
T2 sequence: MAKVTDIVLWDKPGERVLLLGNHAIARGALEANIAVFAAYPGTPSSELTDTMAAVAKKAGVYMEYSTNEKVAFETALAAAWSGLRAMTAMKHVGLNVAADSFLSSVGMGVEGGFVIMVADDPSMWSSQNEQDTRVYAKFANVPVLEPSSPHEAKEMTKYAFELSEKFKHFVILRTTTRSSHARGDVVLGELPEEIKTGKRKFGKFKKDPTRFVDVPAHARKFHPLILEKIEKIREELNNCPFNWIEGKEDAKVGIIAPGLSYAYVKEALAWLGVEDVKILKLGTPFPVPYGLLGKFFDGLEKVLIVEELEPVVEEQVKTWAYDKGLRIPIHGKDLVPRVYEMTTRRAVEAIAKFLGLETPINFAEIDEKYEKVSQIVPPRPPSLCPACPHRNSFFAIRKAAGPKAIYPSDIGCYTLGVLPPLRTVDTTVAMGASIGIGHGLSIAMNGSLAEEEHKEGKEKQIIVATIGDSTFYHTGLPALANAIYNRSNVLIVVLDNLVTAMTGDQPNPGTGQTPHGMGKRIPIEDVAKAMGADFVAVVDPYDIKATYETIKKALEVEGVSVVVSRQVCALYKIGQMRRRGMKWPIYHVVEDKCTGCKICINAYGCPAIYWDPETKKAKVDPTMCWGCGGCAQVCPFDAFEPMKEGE

T3: Indolepyruvate-Fd oxidoreductase, β subunit (Thermococcus kodakarensis) (UniProt O07836)
T3 sequence: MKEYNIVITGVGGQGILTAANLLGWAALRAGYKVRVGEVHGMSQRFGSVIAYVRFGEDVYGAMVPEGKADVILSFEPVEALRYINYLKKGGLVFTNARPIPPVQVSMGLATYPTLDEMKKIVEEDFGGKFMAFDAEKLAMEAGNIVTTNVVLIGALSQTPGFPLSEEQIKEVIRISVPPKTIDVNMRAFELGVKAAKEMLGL


Key:
Experiment in all cases: affinity purification with mass spectrometry; HA- and His6-tagged bait made from its native locus, captured from clarified T. kodakarensis lysate on a Ni2+-charged chelating column (buffer A: 10 mM Tris HCl pH 8.0, 500 mM NaCl, 10% glycerol), eluted with an imidazole gradient; pooled fractions identified by MuDPIT LC-MS/MS and compared with the parental strain TS559 (P < 0.05, log2 fold change ≥ 2); cells grown at 85°C with (+S˚) or without (–S˚) elemental sulfur
[1] = biological target: T1, Formate dehydrogenase, [4Fe-4S] cluster-binding protein, FDHγ3 (Thermococcus kodakarensis)
[2] = biological target: T2, Indolepyruvate-Fd oxidoreductase, α subunit (Thermococcus kodakarensis)
[3] = biological target: T3, Indolepyruvate-Fd oxidoreductase, β subunit (Thermococcus kodakarensis)

Binder | binding [1] | binding [2] | binding [3]
[4Fe-4S] cluster-binding protein associated with FDH, FDHγ4 (protein, UniProt Q5JHV8 1-162) MPETLKCSLIPLEHLPNGLGVPQIDPELCIGCGACVNVCPAGALQAIDDYMEGIRKISLNIGKCTPCTRCEEVCPTGAIKIATFEVISLRKRAYVEVVELRLHLCPGCGNYADYTERSLEKSLQMLSEGMFDRDEIVGRAVLCRSCRRKLTVNETMRASREG | binds | – | –
[4Fe-4S] cluster-binding protein associated with FDH, FDHγ2 (protein, UniProt Q5JHW1 1-168) MTRRILHVDYSLCIGCETCEGVCDFIHGGRPNIKVYYTITGIPVPINCRHCEKAPCMDVCPAGAIYRDSDGAVIINPNKCIGCLMCLAACPFGVPTFDVKLKAVTKCDMCADRRRLGTAPACAEMCPAGAIFFGKPEEVEEKVRRRTAEKIARERLAAVNLEGVGRML | binds | – | –

Further lines, results first:

binding [1] | binding [2] | binding [3] | Binder
– | no binding | no binding | IORα2 (TK1643) (protein, UniProt Q5JIU3 1-637) MEALKNAPSNASLGVSAKKERKLLMGNEAIAYGALESGVVFATGYPGTPSTEVIETIARLKPEVFAEWAPNEKVALEEAAGVAYTGLRALVTMKCVGLNVAADPLMSLAYSGVEGGLVILVADDPGPHTSQTEQDDRYYGKISLLPVLEPADPQEAHDLIKYAYELSERYKVPIIFRTTTRVNHTTADVEVGEFVELNRKPVFKKDIERYVRASMEGNRKRHKWLNETLRKIEEEFNEMPFNWVEGKEDAKLGIIVEGAPYNYVKEVLPKINAEFKVLKLSTPHPLPKKLVVEFLKTVEEAIVIEDGAPFLEEEVKIAAYEAGLNVPIYGKRTGHLPLEGELTPSLVRNALLKVIGEESEEYVKPEEVAYAENLAPKRPPVMCPGCPHRGSYRAVLDALRDLKLGRYKVPIHGDIGCYALSLLPPLEAIWTEYVMGASISLANGQSVVMDKKIIATIGDSTFFHNGIQPLIDAVYKNLNVLVMILDNRTTAMTGHQPHPGTGGSETGRKFNEIDIEALVKALGVKYVKTVDPYDLKATREAIKEAMQIEGPAVIIAKRECVIPVIRRGEIGELPVVIEDKCTGCKACILLTGCPALVYDPETKKVRIDELLCTGCGVCNQTCPFDAIKFPSELKKGA
– | binds | binds | IORβ2 (TK2244) (protein, UniProt Q5JHR4 1-194) MEFNLIITGVGGQGGLTLSRIVGNAAMVEGYNVRIGETLGMSQRYGSVLSYLRFGEEVYSPLIEEGEADLMLALEPAEALRNARFLSRKSHAIINAYPIHTATTLVGKERYPELNEIKEAIGRICPVDMLDFQKEADKINPRTLGVLMLGYAYGKGLIPLRKESILEGIKLTLREKLWEMNFRAFERGVELSKE
